Results on 10 molecules are retold here after PMC11266670.

Amino acid sequences for entries named in this document (tags omitted). A change or cut given only in a name is not applied to a line headed by its entry.
UniProt Q62280: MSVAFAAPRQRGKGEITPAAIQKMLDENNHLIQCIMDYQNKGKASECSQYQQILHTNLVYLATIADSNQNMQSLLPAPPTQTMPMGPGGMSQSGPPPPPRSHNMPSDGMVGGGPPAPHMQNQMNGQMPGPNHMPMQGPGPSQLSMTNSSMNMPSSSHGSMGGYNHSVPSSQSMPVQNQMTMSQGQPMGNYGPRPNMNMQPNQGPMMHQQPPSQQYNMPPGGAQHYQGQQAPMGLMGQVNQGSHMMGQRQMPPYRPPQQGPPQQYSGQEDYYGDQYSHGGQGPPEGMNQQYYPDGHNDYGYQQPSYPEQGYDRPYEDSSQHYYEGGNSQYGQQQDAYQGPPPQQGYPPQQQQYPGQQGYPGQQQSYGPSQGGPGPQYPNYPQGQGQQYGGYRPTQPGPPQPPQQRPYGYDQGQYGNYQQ
UniProt A2BH40: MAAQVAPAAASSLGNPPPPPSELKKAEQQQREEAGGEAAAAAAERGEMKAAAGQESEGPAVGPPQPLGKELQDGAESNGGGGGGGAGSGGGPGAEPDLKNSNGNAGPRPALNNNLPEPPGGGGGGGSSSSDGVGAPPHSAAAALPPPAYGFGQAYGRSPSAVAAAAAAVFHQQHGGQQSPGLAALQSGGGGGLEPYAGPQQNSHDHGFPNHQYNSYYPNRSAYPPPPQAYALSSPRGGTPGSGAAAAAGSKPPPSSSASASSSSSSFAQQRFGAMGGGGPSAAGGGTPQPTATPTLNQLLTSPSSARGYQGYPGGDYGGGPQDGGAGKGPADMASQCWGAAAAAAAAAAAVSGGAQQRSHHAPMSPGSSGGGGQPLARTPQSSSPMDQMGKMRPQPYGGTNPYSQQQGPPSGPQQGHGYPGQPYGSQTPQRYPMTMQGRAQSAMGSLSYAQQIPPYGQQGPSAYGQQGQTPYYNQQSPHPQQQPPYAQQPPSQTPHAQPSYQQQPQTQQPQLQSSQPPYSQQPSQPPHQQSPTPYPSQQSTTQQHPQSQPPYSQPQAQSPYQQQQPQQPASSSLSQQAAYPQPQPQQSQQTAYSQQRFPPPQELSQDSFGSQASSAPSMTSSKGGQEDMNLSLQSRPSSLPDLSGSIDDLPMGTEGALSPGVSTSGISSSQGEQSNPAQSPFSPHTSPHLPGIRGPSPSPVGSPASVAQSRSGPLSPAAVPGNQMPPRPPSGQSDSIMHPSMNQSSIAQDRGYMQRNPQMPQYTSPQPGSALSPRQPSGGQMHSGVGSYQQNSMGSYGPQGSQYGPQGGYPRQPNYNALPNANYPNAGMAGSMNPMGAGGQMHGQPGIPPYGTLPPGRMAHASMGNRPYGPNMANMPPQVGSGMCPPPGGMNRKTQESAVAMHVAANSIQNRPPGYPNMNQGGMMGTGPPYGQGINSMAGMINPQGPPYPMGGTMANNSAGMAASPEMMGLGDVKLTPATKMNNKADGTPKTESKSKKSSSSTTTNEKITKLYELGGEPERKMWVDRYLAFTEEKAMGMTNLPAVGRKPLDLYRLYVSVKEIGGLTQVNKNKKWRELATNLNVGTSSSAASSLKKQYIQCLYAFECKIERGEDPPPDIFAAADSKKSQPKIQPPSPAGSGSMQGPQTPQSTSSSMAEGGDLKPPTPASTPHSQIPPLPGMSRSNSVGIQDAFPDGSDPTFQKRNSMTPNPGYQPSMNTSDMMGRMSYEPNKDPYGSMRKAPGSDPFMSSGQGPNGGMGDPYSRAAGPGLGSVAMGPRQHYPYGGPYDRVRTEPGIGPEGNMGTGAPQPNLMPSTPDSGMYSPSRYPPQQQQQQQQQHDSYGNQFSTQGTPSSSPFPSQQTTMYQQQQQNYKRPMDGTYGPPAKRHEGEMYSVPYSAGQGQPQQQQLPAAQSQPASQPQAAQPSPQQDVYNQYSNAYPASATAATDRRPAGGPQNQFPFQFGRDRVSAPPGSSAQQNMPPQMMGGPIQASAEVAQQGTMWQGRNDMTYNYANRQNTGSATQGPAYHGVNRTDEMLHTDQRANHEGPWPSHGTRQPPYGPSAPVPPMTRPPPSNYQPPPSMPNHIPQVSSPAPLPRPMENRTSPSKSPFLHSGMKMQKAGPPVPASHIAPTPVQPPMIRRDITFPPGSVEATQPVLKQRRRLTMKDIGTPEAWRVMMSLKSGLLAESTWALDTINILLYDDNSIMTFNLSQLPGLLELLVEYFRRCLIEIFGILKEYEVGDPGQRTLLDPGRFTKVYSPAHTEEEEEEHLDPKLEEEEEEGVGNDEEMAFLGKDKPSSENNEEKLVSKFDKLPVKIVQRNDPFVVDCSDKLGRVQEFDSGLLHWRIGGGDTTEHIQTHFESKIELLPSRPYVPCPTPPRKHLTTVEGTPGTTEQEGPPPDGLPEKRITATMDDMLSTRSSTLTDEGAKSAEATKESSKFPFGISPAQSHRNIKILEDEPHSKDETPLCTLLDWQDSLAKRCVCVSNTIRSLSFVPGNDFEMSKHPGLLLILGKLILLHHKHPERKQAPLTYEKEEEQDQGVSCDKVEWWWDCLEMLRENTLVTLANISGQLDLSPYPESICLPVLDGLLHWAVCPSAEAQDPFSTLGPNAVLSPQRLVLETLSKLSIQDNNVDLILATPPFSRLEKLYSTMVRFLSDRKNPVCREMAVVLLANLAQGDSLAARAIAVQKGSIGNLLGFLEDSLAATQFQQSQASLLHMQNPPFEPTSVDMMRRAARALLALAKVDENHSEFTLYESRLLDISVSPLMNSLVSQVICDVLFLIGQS
UniProt Q8BSQ9: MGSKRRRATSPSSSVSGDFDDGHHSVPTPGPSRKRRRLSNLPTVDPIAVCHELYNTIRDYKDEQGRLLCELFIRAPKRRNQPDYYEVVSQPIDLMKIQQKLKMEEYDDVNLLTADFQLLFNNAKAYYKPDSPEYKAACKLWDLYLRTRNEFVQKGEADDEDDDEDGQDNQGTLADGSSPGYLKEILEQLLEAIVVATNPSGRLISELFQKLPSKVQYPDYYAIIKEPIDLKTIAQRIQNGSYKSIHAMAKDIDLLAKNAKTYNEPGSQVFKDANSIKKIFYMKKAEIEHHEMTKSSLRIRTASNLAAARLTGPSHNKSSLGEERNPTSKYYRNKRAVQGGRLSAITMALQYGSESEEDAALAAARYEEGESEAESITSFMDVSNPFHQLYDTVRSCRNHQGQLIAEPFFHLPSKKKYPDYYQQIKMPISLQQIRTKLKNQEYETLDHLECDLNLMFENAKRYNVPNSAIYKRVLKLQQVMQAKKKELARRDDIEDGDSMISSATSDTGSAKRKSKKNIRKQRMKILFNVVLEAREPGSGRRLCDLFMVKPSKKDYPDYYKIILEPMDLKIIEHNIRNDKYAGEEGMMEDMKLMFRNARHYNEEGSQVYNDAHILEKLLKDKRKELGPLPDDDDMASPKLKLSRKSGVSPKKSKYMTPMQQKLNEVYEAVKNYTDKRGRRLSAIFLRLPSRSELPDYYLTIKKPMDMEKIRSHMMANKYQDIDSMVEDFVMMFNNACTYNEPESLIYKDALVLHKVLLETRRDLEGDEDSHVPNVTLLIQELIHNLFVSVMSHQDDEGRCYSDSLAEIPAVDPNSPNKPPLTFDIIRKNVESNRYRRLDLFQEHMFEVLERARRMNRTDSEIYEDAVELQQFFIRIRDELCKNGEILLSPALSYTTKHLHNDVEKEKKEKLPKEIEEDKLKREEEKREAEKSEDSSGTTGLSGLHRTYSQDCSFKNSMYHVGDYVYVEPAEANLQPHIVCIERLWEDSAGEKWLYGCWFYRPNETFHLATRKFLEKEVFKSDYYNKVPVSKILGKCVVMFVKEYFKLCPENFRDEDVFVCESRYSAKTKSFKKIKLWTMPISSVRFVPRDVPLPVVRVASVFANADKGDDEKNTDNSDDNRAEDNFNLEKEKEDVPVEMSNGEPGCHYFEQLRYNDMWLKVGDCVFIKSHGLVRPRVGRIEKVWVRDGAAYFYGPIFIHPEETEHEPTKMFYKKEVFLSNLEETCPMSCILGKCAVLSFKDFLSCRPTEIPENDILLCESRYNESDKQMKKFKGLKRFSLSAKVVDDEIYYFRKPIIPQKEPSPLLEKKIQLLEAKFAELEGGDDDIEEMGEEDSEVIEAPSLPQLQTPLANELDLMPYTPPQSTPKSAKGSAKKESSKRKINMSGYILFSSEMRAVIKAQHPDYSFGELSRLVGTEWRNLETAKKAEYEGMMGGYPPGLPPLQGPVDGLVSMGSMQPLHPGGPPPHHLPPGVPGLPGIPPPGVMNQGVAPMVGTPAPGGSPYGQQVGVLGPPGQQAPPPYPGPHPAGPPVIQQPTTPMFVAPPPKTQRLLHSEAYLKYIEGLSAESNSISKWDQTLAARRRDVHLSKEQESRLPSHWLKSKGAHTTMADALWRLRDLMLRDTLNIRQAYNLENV
UniProt Q61466: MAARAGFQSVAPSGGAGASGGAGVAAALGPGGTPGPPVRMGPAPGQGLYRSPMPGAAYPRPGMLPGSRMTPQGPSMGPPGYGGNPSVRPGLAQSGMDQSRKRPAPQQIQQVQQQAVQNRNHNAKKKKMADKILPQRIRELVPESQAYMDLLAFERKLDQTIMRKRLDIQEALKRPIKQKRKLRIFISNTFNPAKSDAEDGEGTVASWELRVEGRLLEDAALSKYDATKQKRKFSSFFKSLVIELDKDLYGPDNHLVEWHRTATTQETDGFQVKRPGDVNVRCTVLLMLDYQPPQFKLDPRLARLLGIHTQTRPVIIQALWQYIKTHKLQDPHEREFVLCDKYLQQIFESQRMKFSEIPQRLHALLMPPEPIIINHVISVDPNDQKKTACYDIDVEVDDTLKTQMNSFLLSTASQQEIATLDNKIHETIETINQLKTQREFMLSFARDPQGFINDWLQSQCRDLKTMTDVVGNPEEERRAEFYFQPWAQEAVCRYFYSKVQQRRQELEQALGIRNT
UniProt Q6P9Z1: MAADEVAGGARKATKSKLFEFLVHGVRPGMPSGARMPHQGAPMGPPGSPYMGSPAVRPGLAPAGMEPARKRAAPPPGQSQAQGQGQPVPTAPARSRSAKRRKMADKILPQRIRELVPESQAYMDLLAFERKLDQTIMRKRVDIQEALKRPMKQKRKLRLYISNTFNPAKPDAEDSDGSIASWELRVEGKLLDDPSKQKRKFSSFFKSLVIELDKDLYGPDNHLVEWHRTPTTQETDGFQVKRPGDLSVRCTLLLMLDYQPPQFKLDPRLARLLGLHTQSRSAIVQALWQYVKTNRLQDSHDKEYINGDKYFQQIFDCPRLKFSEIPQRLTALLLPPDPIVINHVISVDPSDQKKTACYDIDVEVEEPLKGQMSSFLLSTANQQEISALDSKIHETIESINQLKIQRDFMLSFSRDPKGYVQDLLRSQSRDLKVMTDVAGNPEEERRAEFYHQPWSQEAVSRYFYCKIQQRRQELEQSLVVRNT
UniProt O54941: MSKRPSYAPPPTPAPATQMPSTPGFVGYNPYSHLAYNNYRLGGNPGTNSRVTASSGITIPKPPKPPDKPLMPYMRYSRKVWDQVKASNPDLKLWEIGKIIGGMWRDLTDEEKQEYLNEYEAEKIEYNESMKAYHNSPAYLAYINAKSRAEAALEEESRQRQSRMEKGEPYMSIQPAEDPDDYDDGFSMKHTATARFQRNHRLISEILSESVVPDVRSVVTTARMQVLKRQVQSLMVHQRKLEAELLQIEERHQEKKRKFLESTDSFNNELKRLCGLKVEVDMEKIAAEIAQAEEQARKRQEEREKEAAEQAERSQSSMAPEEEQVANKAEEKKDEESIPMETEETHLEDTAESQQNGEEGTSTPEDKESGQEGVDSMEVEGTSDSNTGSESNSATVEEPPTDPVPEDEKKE

Results are given in words; binding and its absence hold for the method and conditions named. In cells and extracts the contact can be indirect. Here binding means that the protein was enriched with, or labelled near, the bait; the list need not be complete. No binding means not detected with the bait.

First the molecules themselves.
B1: PHF10 (protein, UniProt Q9D8M7 1-497)
chain: MTAAGPGAAPSPGRCDSDPASPGAQSPKDDNEDNSNDGTHPCKRRRMGSGDSSRSCETSSQDLSFSYYPAENLIEYKWPPDETGEYYMLQEQVSEYLGVTSFKRKYPDLERRDLSHKEKLYLRELNVITETQCTLGLTALRSDEVIDLMIKEYPAKHAEYSVILQEKERQRITDHYKEYSQMQQQSTQKVEASKVPEYIKKAAKKAAEFNSNLNRERMEERRAYFDLQTHVIQVPQGKYKVLPTDRTKVSSYPVALIPGQFQEYYKRYSPDELRYLPLNTALYEPPLDPELPALDSDGDSDDGEDGGGDEKRKNKGTSDSSSGNVSEGDSPPDSQEDTFHGRQKSKDKMATPRKDGSKRSVLSKSAPGYKPKVIPNALCGICLKGKESNKKGKAESLIHCSQCDNSGHPSCLDMTMELVSMIKTYPWQCMECKTCIICGQPHHEEEMMFCDVCDRGYHTFCVGLGAIPSGRWICDCCQRAPPTPRKVGRRGKNSKEG
B2: BRD7 (protein, UniProt O88665 1-651)
chain: MGKKHKKHKSDRHFYEEYVEKPLKLVLKVGGSEVTELSTGSSGHDSSLFEDRSDHDKHKDRKRKKRKKGEKQAPGEEKGRKRRRVKEDKKKRDRDRAENEVDRDLQCHVPIRLDLPPEKPLTSSLAKQEEVEQTPLQEALNQLMRQLQRKDPSAFFSFPVTDFIAPGYSMIIKHPMDFSTMKEKIKNNDYQSIEELKDNFKLMCTNAMIYNKPETIYYKAAKKLLHSGMKILSQERIQSLKQSIDFMSDLQKTRKQKERTDACQSGEDSGCWQREREDSGDAETQAFRSPAKDNKRKDKDVLEDKWRSSNSEREHEQIERVVQESGGKLTRRLANSQCEFERRKPDGTTTLGLLHPVDPIVGEPGYCPVRLGMTTGRLQSGVNTLQGFKEDKRNRVTPVLYLNYGPYSSYAPHYDSTFANISKDDSDLIYSTYGEDSDLPNNFSISEFLATCQDYPYVMADSLLDVLTKGGHSRSLQDLDMSSPEDEGQTRALDTAKEAEITQIEPTGRLESSSQDRLTALQAVTTFGAPAEVFDSEEAEVFQRKLDETTRLLRELQEAQNERLSTRPPPNMICLLGPSYREMYLAEQVTNNLKELTQQVTPGDVVSIHGVRKAMGISVPSPIVGNSFVDLTGECEEPKETSTAECGPDAS

The target of the experiment is Nanog^BiD (UniProt Q62280). Description: affinity purification with mass spectrometry; FLAG pull-down from MEFs reprogramming with Nanog^BiD or Nanog^WT plus Oct4 for 1 day, two replicates; label-free quantification (MaxQuant, DEP); differential analysis Nanog^BiD against Nanog^WT.
Take ARID1A (from UniProt A2BH40 1-2283): the binding result is “binds”.
Under ARID1B (from UniProt E9Q4N7 1-2306) stands “binds”.
Under GLTSCR1 (from UniProt F8VPZ9 1-1578) stands “no binding”.
Under PBRM1 (from UniProt Q8BSQ9 1-1634) stands “no binding”; under SMARCC1 (from UniProt P97496 1-1104), “binds”.
For the molecule SMARCD1 (from UniProt Q61466 1-515), the binding result is on record as “binds”.
The entry for SMARCD3 (from UniProt Q6P9Z1 1-483) is “binds”; for SMARCE1 (from UniProt O54941 1-411) it is “binds”.
Under B1 stands “no binding”.
As to B2, the binding entry is “no binding”.
